# According to PubChem BioAssay AID1508600 (Functional Genomics Laboratory (NCATS/FGL), 2020):
# In all, about 53,000 sequences went through this assay and about 3,700 (7%) were called active.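 The calls were made as follows: active = gene knockdowns whose robust z-score for IL-1 alpha signal is at least 2 or at most -2, so actives lie on both sides; inactive = the rest.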 This is one part of the list.
# Assay: Components of the Cytosolic LPS Sensing Pathway: Gene Identification via Genome-wide siRNA Screen;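 also: robust z of the log signal after scaling to non-targeting control siRNA wells of the plate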
# Settings: RAW264.7 macrophages, IL-1a HTRF, actives lie on both sides, screened at 100 nM (by protocol), cells primed 5 h with Pam3CSK4 first
# How it was run: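 Read-out: IL-1a HTRF on supernatant, divided by plate negative-control median ×100, log-transformed and converted to robust z-score. Cells were RAW264.7 given 100 nM siRNA, Pam3CSK4-primed 5 hours, then LipidA-transfected 24 hour.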
row,Sequence,z-score
1,GCUAAAAACAGCUAAAGAATT against Adam4,inactive: -0.116
2,GGAAGGAAGAUGAAAGCCATT against Hspb3,inactive: 0.434
3,GGGUGGAGUAAAGCUCUAUTT against Olfr1223,inactive: -0.417
4,GGGAACUGCACAAUACAAATT against Ccdc122,inactive: 1.91
5,CGCAGACAAGAAAUGAAGGTT against Hnf4aos,inactive: -1.98
6,GCUAAUCAAGACCGAGCAUTT against Vps33b,inactive: 0.306
7,GGAUGUCCAGAUGUAAAUATT against Vps16,inactive: -0.974
8,GGCAGUUCAAGGCAAUAAATT against Olfm1,inactive: -1.4
9,GCCGCUUGAAGACCAGAAATT against Trp53i11,inactive: 1.03
10,GGUCUAUGGCCCAUAUGAATT against Cspg4,inactive: -1.31
11,GCUUAGAAAUCUUAUCCCATT against Hnrnpc,inactive: -1.19
12,GCAUAGCAGGAAGGCCUUGTT against Htr6,inactive: 0.183
13,GCUACCAGGAUAGCGAAACTT against P2rx2,inactive: 0.826
14,GGAAAAAUUUAGACAGCACTT against Csrp2,inactive: 0.132
15,GCUUAUAAAGUAGUGGUUUTT against Wnt2b,inactive: -0.384
16,GGGUUCCAAUGAAGAUCUCTT against Nr1i2,inactive: 1.17
17,GGCUUCAAGAUGUUCGGCUTT against Plekhg5,inactive: 1.86
18,GGCAGUCUAGCUGAAUCAATT against Tnfsf14,inactive: 0.227
19,GGAAGAAGAAACUCAAGAGTT against Rnf167,inactive: 1.11
20,GCAUUAUGAACCGAAAUGUTT against Olfr1265,inactive: 0.391
21,GGUCAGAUGUAGAAACAGCTT against Dlgap2,inactive: -0.632
22,CCUGUACUACUGAUUAUUATT against Sinhcaf,inactive: 0.16
23,GGGUAUUUAUCUGAAGCCCTT against Tsc22d4,inactive: -0.317

row,Sequence,z-score
1,GGGUUAGCCAUAGAAGAAGTT against Auh,inactive: -0.461
2,GGUCAUUCCUGAGUGCAGGTT against Olfr545,inactive: 0.378
3,GGCCAUCUUGACACACAUGTT against Wnt4,inactive: -1.02
4,GCACAUUCAGAUGAGGACUTT against Rnf6,inactive: -1.05
5,CGACCUAAUGAAGAAUGUCTT against Hmgcr,inactive: -0.448
6,GGAGACUCAUCCAAUAAAUTT against Vmn2r26,inactive: -1.08
7,GGUAUUUUUCAAGAUUACGTT against Cdkn1b,inactive: 1.41
8,GGCUAAGCAACUCUUUCGATT against Sec22b,inactive: 0.298
9,GGGCCUUCAACUUAACUUUTT against Mindy1,inactive: -1.38
10,GGAGAAAUGCUGAUGUCAATT against Ankrd22,inactive: -0.939
11,GGCAUGAGGAUACUGAAGGTT against Klra19,inactive: -1.25
12,GCCAUGUACGCAAAAUAGUTT against Lsm12,inactive: -1.44
13,CCCAAAGUGCUUUACAAUGTT against Aard,active: 2.1
14,GCACUCUCAUUCCUAUUGGTT against Slc10a4,inactive: -0.0846
15,GGAGCUAUCACUUUUCAUUTT against G0s2,inactive: 0.778
16,GCUUCUGAUAUAGUCAGCCTT against Ptpro,inactive: 0.28
17,GCGAAUUGAGCUCAAACAUTT against Spty2d1,inactive: -0.519
18,GGUGCUAGUGUAUGAAUUATT against Nsun5,active: 2.39
19,CCAACUUGUAAUCAAAGGATT against Eif2s2,inactive: -0.335
20,GGGCUGACCAGUUUGAGUATT against Polr2h,active: -2.7
21,GGCAGCCUAUAUAUACUCATT against Lpcat2b,inactive: 0.254
22,GGACUUUGAACUACCGAAGTT against Usp54,inactive: -0.0479
23,GGUAGCAAAUUUCAAUCUUTT against Hipk1,inactive: 0.602

row,Sequence,z-score
1,GCAGGAACGUGAGGACCAUTT against Snip1,inactive: 0.842
2,GGCACCUGUUAAAAAUGAATT against Prag1,inactive: -0.771
3,GGAAAGGAACAUAUUUGACTT against Gss,inactive: 0.0774
4,GGUCAUUCAAUACCAGAUATT against Cd48,inactive: 0.417
5,CCGCAUACCUCUAAGGUAGTT against Cwc25,inactive: -0.681
6,GCACUUUGAGAACACUAAUTT against Zfp9,inactive: -1.58
7,GGAACGUGCAAUGCUUGUUTT against Adm,inactive: 0.241
8,GGAAAUGUCAUGCUUUCAGTT against Vmn1r13,inactive: 0.126
9,CCUUACCCUGUGUAUCUUUTT against Naa80,inactive: -0.0307
10,GGCUGCACCAGAAACAUUATT against Vezf1,inactive: -0.706
11,GGGUACUUCUCAGGAAUAGTT against Nudt5,inactive: 0.981
12,CCUAAUCGAGAAUGAGUUATT against Speer2,inactive: -1.02
13,GCGAAUUGAACAGUUCUCATT against Cwf19l2,inactive: 0.0299
14,CCUAGUGUGUGCUUUUCGGTT against Akr7a5,inactive: -0.502
15,CCUCAUAGGCUUGACAAUUTT against Exoc2,inactive: -0.0626
16,GCCAUUCAAAAAUCAGCCGTT against Ddi2,active: -2.02
17,GGGAGGGAUUUAUGUCCUCTT against Slc6a2,inactive: 0.333
18,GCUAUGUAUCUUUUGAGAUTT against Chst3,inactive: -0.0508
19,CGAAUUCUCUUGGAACAAUTT against Cntn3,inactive: -1.19
20,GGGAAGAAAGACUCAAACUTT against Dcdc2a,inactive: 0.919
21,GGGACUCAAAAUCAAGAGATT against Mrps28,inactive: 0.206
22,CCUUAAACGACGAGAAGCATT against Hp,inactive: -1.47

# Four entries from above, as tab-separated lines:
row	Sequence	z-score
11	GGGUACUUCUCAGGAAUAGTT against Nudt5	inactive: 0.981
12	CCUAAUCGAGAAUGAGUUATT against Speer2	inactive: -1.02
13	GCGAAUUGAACAGUUCUCATT against Cwf19l2	inactive: 0.0299
14	CCUAGUGUGUGCUUUUCGGTT against Akr7a5	inactive: -0.502
